Laboratory results taken from the supplement of paper PMC4604168 (melanoma cell lines).
Some of the results follow. Repeats are few or missing, and single values can be far off.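 The apoptosis fraction was the count of cleaved-PARP antibody-stained nuclei relative to all DNA-stained nuclei, imaged in 1,536-well plates. Screening doses were set so most cells survived, and baseline and induced cleaved-PARP levels vary greatly across cell lines.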

test system: WM3526; experiment: cleaved PARP positive nuclei fraction relative to DMSO control; melanoma cells; higher = more apoptosis; conditions: library dose: low library concentration; 72 h

| SMILES | cleaved PARP positive nuclei fraction |
| --- | --- |
| NC(=O)c1ccc(N(C(N)=O)c2c(F)cccc2F)nc1-c1ccc(F)cc1F + C=C(c1ccc(C(=O)O)cc1)c1cc2c(cc1C)C(C)(C)CCC2(C)C [Bexarotene] (first compound 0.4 µM, partner dose 2 µM) | 50% |
| Cn1cnc2c(F)c(Nc3ccc(Br)cc3Cl)c(C(=O)NOCCO)cc21 [selumetinib] + Cn1nnc2c(C(N)=O)ncn2c1=O [temozolomide] (first compound 0.015 µM, partner dose 2 µM) | 52.2% |
| C[C@]1(O)C[C@@H](c2nc(-c3ccc4ccc(-c5ccccc5)nc4c3)c3c(N)nccn32)C1 + CS(=O)(=O)c1ccc(C(=O)Nc2ccc(Cl)c(-c3ccccn3)c2)c(Cl)c1 [vismodegib] (first compound 0.4 µM, partner dose 1 µM) | 94.7% |
| C[C@]1(O)C[C@@H](c2nc(-c3ccc4ccc(-c5ccccc5)nc4c3)c3c(N)nccn32)C1 + Cc1cc(Nc2cc(N3CCN(C)CC3)nc(/C=C/c3ccccc3)n2)n[nH]1 [ENMD2076] (first compound 0.4 µM, partner dose 0.04 µM) | 45.3% |
| Cn1cnc2c(F)c(Nc3ccc(Br)cc3Cl)c(C(=O)NOCCO)cc21 [selumetinib] + O=C(O)[C@@H]1[O][Sb](=[O])([O][Sb]2(=[O])[O][C@H]([C@H](O)CO)[C@H](O)[C@H](C(=O)O)[O]2)[O][C@H]([C@H](O)CO)[C@@H]1O [stibogluconate] (first compound 0.015 µM, partner dose 2 µM) | 131% |
| Cn1cnc2c(F)c(Nc3ccc(Br)cc3Cl)c(C(=O)NOCCO)cc21 [selumetinib] + CCN(CC)CCNC(=O)c1c(C)[nH]c(/C=C2\C(=O)Nc3ccc(F)cc32)c1C [sunitinib] (first compound 0.015 µM, partner dose 0.4 µM) | 142% |
| Cn1sc(=O)n(Cc2ccccc2)c1=O + CN(c1ncccc1CNc1nc(Nc2ccc3c(c2)CC(=O)N3)ncc1C(F)(F)F)S(C)(=O)=O [PF562271] (first compound 0.4 µM, partner dose 0.08 µM) | 39% |
| CC1(C)CCC(c2ccc(Cl)cc2)=C(CN2CCN(c3ccc(C(=O)NS(=O)(=O)c4ccc(N[C@H](CCN5CCOCC5)CSc5ccccc5)c(S(=O)(=O)C(F)(F)F)c4)cc3)CC2)C1 + OCc1c[nH]c2ccccc12 [Indole-3-carbinol] (first compound 0.4 µM, partner dose 0.8 µM) | 45.4% |
| CC(=O)O[C@@]12CO[C@@H]1C[C@H](O)[C@@]1(C)C(=O)[C@H](O)C3=C(C)[C@@H](OC(=O)[C@H](O)[C@@H](NC(=O)OC(C)(C)C)c4ccccc4)C[C@@](O)([C@@H](OC(=O)c4ccccc4)[C@H]21)C3(C)C [Docetaxel] + NC1(c2ccc(-c3nc4ccn5c(=O)[nH]nc5c4cc3-c3ccccc3)cc2)CCC1 [MK2206] (first compound 0.0001 µM, partner dose 0.4 µM) | 218% |
| C[C@]1(O)C[C@@H](c2nc(-c3ccc4ccc(-c5ccccc5)nc4c3)c3c(N)nccn32)C1 + Nc1cccc2c1CN(C1CCC(=O)NC1=O)C2=O [lenalidomide] (first compound 0.4 µM, partner dose 1 µM) | 87.2% |
| C[C@@H](N)c1ccc(C(=O)Nc2ccnc3[nH]ccc23)cc1 + C=CCNC1=C2C[C@@H](C)C[C@H](OC)[C@H](O)[C@@H](C)/C=C(\C)[C@H](OC(N)=O)[C@@H](OC)/C=C\C=C(/C)C(=O)NC(=CC1=O)C2=O [Tanespimycin] (first compound 0.4 µM, partner dose 0.002 µM) | 39.5% |

Taken from above (2 entries):

| SMILES | cleaved PARP positive nuclei fraction |
| --- | --- |
| C[C@]1(O)C[C@@H](c2nc(-c3ccc4ccc(-c5ccccc5)nc4c3)c3c(N)nccn32)C1 + CS(=O)(=O)c1ccc(C(=O)Nc2ccc(Cl)c(-c3ccccn3)c2)c(Cl)c1 [vismodegib] (first compound 0.4 µM, partner dose 1 µM) | 94.7% |
| C[C@]1(O)C[C@@H](c2nc(-c3ccc4ccc(-c5ccccc5)nc4c3)c3c(N)nccn32)C1 + Cc1cc(Nc2cc(N3CCN(C)CC3)nc(/C=C/c3ccccc3)n2)n[nH]1 [ENMD2076] (first compound 0.4 µM, partner dose 0.04 µM) | 45.3% |
